# Experimental data: publication PMC4838304 (PLoS Computational Biology, 2016)
# Experiment: peptide made by a vendor
# Settings: whole synthesis, HPLC and mass spectrometry
row,Substance,final HPLC purity [%]
1,TAMRA-chimera woRK,>50
2,TAMRA-NLS-α-CE woRK,>80
3,TAMRA-α-NLS-C,>95
4,TAMRA-chimera,>80
5,TAMRA-NLS-α-CE,>80
6,TAMRA-α-NLS-C woRK,>95
